Measurements reported in PubChem BioAssay AID1224830 (NIAID, 2016)
Assay: 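Host factors that control LPS-induced TNF expression in human macrophages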 (primary screen). Cells: human THP-1 monocytic leukaemia cells, TNF dual-luciferase reporter clone, PMA-differentiated to macrophage-like cells. Reagent: siRNA pool against human genes, 50 nM. Duration: LPS for 4 h, given about 3 days after siRNA transfection. Challenge: bacterial LPS (TLR4 ligand), 10 ng/ml. Measurement: 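Ratio of firefly to renilla light, scaled to the plate median and expressed as a robust z-score per replicate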. Reading the numbers: TNF reporter robust z-score: higher = stronger TNF reporter response to LPS. Hit rule: 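Each well counts as active if its z-score is over 2.8 or under -1.5; controls are left without a call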.
The deposit covers about 18,000 reagents; this is an unselected part. About 2,900 of all reagents (16%) count as active. 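Calls are made per well; low scores hint the gene aids the LPS response, high scores that it dampens it.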 Repeated entries: four replicate wells of each siRNA pool.

gene knocked down	TNF reporter robust z-score	Outcome
TMEM38B (transmembrane protein 38B)	0.08	inactive
TMEM38B (transmembrane protein 38B)	-0.02	inactive
TMEM38B (transmembrane protein 38B)	-1.21	inactive
TMEM38B (transmembrane protein 38B)	-1.02	inactive
OR1L4 (olfactory receptor family 1 subfamily L member 4)	0.74	inactive
OR1L4 (olfactory receptor family 1 subfamily L member 4)	2.04	inactive
OR1L4 (olfactory receptor family 1 subfamily L member 4)	0.08	inactive
OR1L4 (olfactory receptor family 1 subfamily L member 4)	0.25	inactive
GUCY1A1 (guanylate cyclase 1 soluble subunit alpha 1)	0.3	inactive
GUCY1A1 (guanylate cyclase 1 soluble subunit alpha 1)	-1.1	inactive
GUCY1A1 (guanylate cyclase 1 soluble subunit alpha 1)	0.4	inactive
GUCY1A1 (guanylate cyclase 1 soluble subunit alpha 1)	-0.42	inactive
FAM13B (family with sequence similarity 13 member B)	-1.6	active
FAM13B (family with sequence similarity 13 member B)	0.53	inactive
FAM13B (family with sequence similarity 13 member B)	0.76	inactive
FAM13B (family with sequence similarity 13 member B)	-0.36	inactive
EDNRB (endothelin receptor type B)	-0.66	inactive
EDNRB (endothelin receptor type B)	-0.14	inactive
EDNRB (endothelin receptor type B)	-0.55	inactive
EDNRB (endothelin receptor type B)	0.38	inactive
CLOCK (clock circadian regulator)	-0.6	inactive
CLOCK (clock circadian regulator)	0.15	inactive
CLOCK (clock circadian regulator)	0.88	inactive
CLOCK (clock circadian regulator)	0.74	inactive
GMPS (guanosine monophosphate synthase)	-0.5	inactive
GMPS (guanosine monophosphate synthase)	0.28	inactive
GMPS (guanosine monophosphate synthase)	-0.24	inactive
GMPS (guanosine monophosphate synthase)	0.26	inactive
FANCL (FA complementation group L)	-0.68	inactive
FANCL (FA complementation group L)	0.07	inactive
FANCL (FA complementation group L)	0.47	inactive
FANCL (FA complementation group L)	0.26	inactive
UBE2D3 (ubiquitin conjugating enzyme E2 D3)	-0.23	inactive
UBE2D3 (ubiquitin conjugating enzyme E2 D3)	-0.18	inactive
UBE2D3 (ubiquitin conjugating enzyme E2 D3)	0.04	inactive
UBE2D3 (ubiquitin conjugating enzyme E2 D3)	-0.03	inactive
RBM5 (RNA binding motif protein 5)	-0.92	inactive
RBM5 (RNA binding motif protein 5)	-0.03	inactive
RBM5 (RNA binding motif protein 5)	-0.36	inactive
RBM5 (RNA binding motif protein 5)	-0.23	inactive
PIAS4 (protein inhibitor of activated STAT 4)	-0.6	inactive
PIAS4 (protein inhibitor of activated STAT 4)	-0.39	inactive
PIAS4 (protein inhibitor of activated STAT 4)	-0.76	inactive
PIAS4 (protein inhibitor of activated STAT 4)	-1.05	inactive
KMO (kynurenine 3-monooxygenase)	-0.67	inactive
KMO (kynurenine 3-monooxygenase)	-0.4	inactive
KMO (kynurenine 3-monooxygenase)	0.16	inactive
KMO (kynurenine 3-monooxygenase)	0.87	inactive
